Measurements as given in patent US9220269B2, “Use of 6-substituted 9-halogenalkyl purines for regulation of growth and development of whole plants, plant cells and plant organs; novel 6-substituted 9-halogenalkyl purines” (UNIVERZITA PALACKEHO V OLOMOUCI, priority 2010, dated 2015).
At least one structure is not confirmed: it was looked up by name or label, or the drawing left a doubt.

Tests used:
[1] = system: cytokinin-dependent tobacco callus Nicotiana tabacum L. cv. Wisconsin 38; experiment: cytokinin-dependent tobacco callus bioassay (plant cell division); assay type: cell-based; details: concentrations exceeding 10 μM, up to 100 μM; FIG. 1
Procedure: Stimulatory effect of newly prepared derivatives was tested using cytokinin-dependent tobacco callus. The cytokinin-dependent tobacco callus Nicotiana tabacum L. cv. Wisconsin 38 was maintained at 25° C. in darkness on modified MS medium, containing per 1 liter: 4 μmol of nicotinic acid, 2.4 μmol of pyridoxine hydrochloroide, 1.2 μmol of thiamine, 26.6 μmol of glycine, 1.37 μmol of glutamine, 1.8 μmol of myo-inositol, 30 g of sucrose, 8 g of agar, 5.37 μmol of NAA and 0.5 μmol of the compound tested. Subcultivation was carried out every three weeks. Fourteen days before the bioassay, the callus tissue was transferred to the media without the compound tested. The biological activity was determined from the increase of the fresh callus weight after four weeks of cultivation. Six replicates were prepared for each concentration of the compound tested and the entire test was repeated twice. […] The compounds to be tested were dissolved in dimethylsulfoxide (DMSO) and the solution brought up to 10^−3 M with distilled water. […] From the obtained data, the concentration with the highest activity was selected for each compound tested. Relative activity of the compound at this concentration was calculated (Table 2). The activity obtained for 10^−6 M of the N9-unsubstituted parent cytokinins Kin and 10^−5 M iP, respectively, was postulated as 100% biological activity. […]

[2] = system: membrane lipid peroxidation in detached leaves of Triticum aestivum cv. Hereward; experiment: membrane lipid peroxidation (MDA, TBA method) in detached wheat leaves during dark senescence
Procedure: A typical symptom associated with senescence as a direct consequence of increased reactive oxygen species is lipid peroxidation. Therefore the levels of MDA, a decomposition product of lipid peroxidation, were measured in detached wheat leaves that were exposed to the prepared novel derivatives and kinetin for four days in the dark as described in Example 7. MDA levels were measured using a thiobarbituric acid (TBA) method. In detail, 100 mg of fresh plant material was homogenized by high speed shaking in a ball mill (MM301, Retsch, Germany) with 1 mL of 80% methanol. The crude extract was centrifuged at 10,000×g for 5 min, and 100 μL aliquot of supernatant was vortexed with 100 μL of 0.5% (w/v) TBA containing 0.1% (w/v) trichloroacetic acid, and the resulting solution was then incubated for 30 min at 95° C. The samples were quickly cooled on ice and recentrifuged for 5 min at 1000×g. The absorbance of supernatant was measured at 532 nm with background subtraction at 600 nm and the amount of MDA-TBA complex was calculated from the coefficient of absorbance 155 mM^−1 cm^−1.

SMILES: BrCCn1cnc2c(NCc3ccco3)ncnc21 [Compound 2, 6-furfurylamino-9-(2-bromoethyl)purine]
- effect on callus growth (cell proliferation) in high concentrations [1]: still kept their stimulatory effect
- level of membrane lipid peroxidation reduced to ([2]; dark senescence, compared to untreated control): 69%
- MDA ([2]; detached wheat leaves, four days in the dark, untreated control 18.9 (±2.2)): 13.2 (±1.5) nmol/g FW
